The list is a part of this screen's results and no random one: it gathers tests that were run many times, whatever their T/C, doses with no T/C, and many T/C values between a quarter and a half above the control. Other doses and runs of a compound stand elsewhere. T/C is the treated group as % of the vehicle group. Some entries give survivors of the animals treated and no T/C: the source holds a T/C of zero for them, seemingly a mark for toxic or unscored doses. Some survivor counts are full or nearly so, which does not show that the dose was tolerated: survival well below the control is almost never listed, so the zero probably covers shortened survival too. Survivors were counted at the toxicity check, usually on the fifth day, unless a day is given; later deaths do not show. Schedule codes are those of the source, taken here to give the interval after Q, in days (D) or hours (H), and the number of doses after X. Where survival is the endpoint, the PubChem record calls one and a half times the control and up active, and a quarter to a half above the control has no call in these data; cut-offs in other NCI protocols can differ.
System: P388 leukemia ip, CD2F1 mice, survival T/C
Assay: NCI In Vivo Anticancer Drug Screen. Data for tumor model P388 Leukemia (intraperitoneal) in CD2F1 (CDF1) mice
Details: T/C endpoint: median survival time, higher T/C = longer survival
[1] = dose: 200.0 mg/kg/injection, schedule: Q01DX005 (ip), vehicle: saline with Tween-80
[2] = dose: 200.0 mg/kg/injection, schedule: Q01DX009 (ip), vehicle: saline with Tween-80
[3] = dose: 50.0 mg/kg/injection, schedule: Q01DX009 (ip), vehicle: saline
[4] = dose: 200.0 mg/kg/injection, schedule: Q01DX009 (ip), vehicle: saline
[5] = dose: 200.0 mg/kg/injection, schedule: Q01DX005 (ip), vehicle: saline
[6] = dose: 50.0 mg/kg/injection, schedule: Q01DX009 (ip), vehicle: Klucel (hydroxypropylcellulose) (HPC)
[7] = dose: 240.0 mg/kg/injection, schedule: Q01DX005 (ip), vehicle: saline with Tween-80
[8] = dose: 100.0 mg/kg/injection, schedule: Q01DX009 (ip), vehicle: saline with Tween-80

SMILES: CCCCCCCCCCCCCCCCCCSC1=CC(=O)C(Cl)=C(Cl)C1=O
- survivor count (dose: 2.5 mg/kg/injection, schedule: Q01DX009 (ip), vehicle: Klucel (hydroxypropylcellulose) (HPC)): 6 of 6
- survivor count (dose: 5.0 mg/kg/injection, schedule: Q01DX009 (ip), vehicle: Klucel (hydroxypropylcellulose) (HPC)): 6 of 6
- survivor count (dose: 40.0 mg/kg/injection, schedule: Q01DX009 (ip), vehicle: Klucel (hydroxypropylcellulose) (HPC)): 6 of 6

SMILES: Cc1ccc(S(=O)(=O)/C=C/CCl)cc1
- survivor count [1]: 1 of 5

SMILES: CC1=[N+]([O-])[N+]([O-])=C(c2ccccc2)C1=O
- survivor count [2]: 3 of 6

SMILES: COC(OC(CO)C(O)S(=O)(=O)O)C(O)S(=O)(=O)O (configuration not stated)
- T/C [3]: 129 % of control
- T/C (dose: 100.0 mg/kg/injection, schedule: Q01DX009 (ip), vehicle: saline): 142 % of control
- T/C [4]: 138 % of control

SMILES: CC(=O)OCN1C(=O)C2C3C=CC(C2C1=O)C1C2C(=O)N(COC(C)=O)C(=O)C2C31 (configuration not stated)
- T/C (dose: 50.0 mg/kg/injection, schedule: Q01DX009 (ip), vehicle: saline with Tween-80): 140 % of control
- T/C [2]: 133 % of control

SMILES: C=C/C=C\CN(C)Cc1ccccc1
- survivor count [5]: 0 of 5

SMILES: BrCc1cccnc1
- survivor count (dose: 100.0 mg/kg/injection, schedule: Q01DX005 (ip), vehicle: saline): 0 of 5
- survivor count [5]: 0 of 5

SMILES: O=S(=O)(O)Oc1c(S(=O)(=O)O)c(S(=O)(=O)O)c(O)c(S(=O)(=O)O)c1S(=O)(=O)O
- survivor count (dose: 200.0 mg/kg/injection, schedule: Q01DX001 (ip), vehicle: saline with Tween-80): 2 of 6
- survivor count (dose: 400.0 mg/kg/injection, schedule: Q01DX001 (ip), vehicle: saline with Tween-80): 0 of 6

SMILES: O=C(/C=N/O)Nc1ccccc1
- T/C [6]: 141 % of control
- survivor count (dose: 200.0 mg/kg/injection, schedule: Q01DX009 (ip), vehicle: Klucel (hydroxypropylcellulose) (HPC)): 2 of 6

SMILES: CC(/C=N/Nc1ccccc1)=N\N=c1/scc(-c2ccc(Br)cc2)n1-c1ccc(Br)cc1
- survivor count (dose: 400.0 mg/kg/injection, schedule: Q04DX002 (ip), vehicle: saline with Tween-80): 4 of 6

SMILES: CC1=C(Sc2ccc(Br)cc2)C(N)Nc2nc(N)nc(N)c21 (configuration not stated)
- survivor count [7]: 5 of 6

SMILES: C=CCN(CC=C)c1nc(N)c2cc(OC)c(OC)cc2n1
- survivor count (dose: 150.0 mg/kg/injection, schedule: Q01DX009 (ip), vehicle: suspension in saline): 1 of 6

SMILES: O=c1oc(-c2cccc(C[n+]3ccccc3)c2)nc2cc(Cl)ccc12
- survivor count (dose: 120.0 mg/kg/injection, schedule: Q01DX005 (ip), vehicle: saline): 4 of 5
- survivor count (dose: 240.0 mg/kg/injection, schedule: Q01DX005 (ip), vehicle: saline): 2 of 6

SMILES: O=C1c2ccccc2CCC1[n+]1ccc2ccccc2c1 (configuration not stated)
- survivor count (dose: 100.0 mg/kg/injection, schedule: Q01DX005 (ip), vehicle: Klucel (hydroxypropylcellulose) (HPC)): 2 of 5
- survivor count (dose: 200.0 mg/kg/injection, schedule: Q01DX005 (ip), vehicle: Klucel (hydroxypropylcellulose) (HPC)): 0 of 5

SMILES: CCCCCCCCCCCCCCCCOc1ccc(-c2cc(Cl)c3cc(S(=O)(=O)F)ccc3n2)cc1S(=O)(=O)F
- survivor count [8]: 6 of 6
- survivor count (dose: 100.0 mg/kg/injection, schedule: Q04DX003 (ip), vehicle: saline with Tween-80): 6 of 6

SMILES: NOCc1cccc(CON)c1
- survivor count [8]: 6 of 6
- survivor count [2]: 4 of 6

SMILES: O=C1NC(O)c2cccc(F)c2O1 (configuration not stated)
- survivor count [1]: 0 of 5
- survivor count (dose: 400.0 mg/kg/injection, schedule: Q01DX005 (ip), vehicle: saline with Tween-80): 0 of 5

SMILES: CCCCCCCCCCCCCCCCONc1ccnc(=O)[nH]1
- survivor count (dose: 150.0 mg/kg/injection, schedule: Q01DX001 (ip), vehicle: Klucel (hydroxypropylcellulose) (HPC)): 6 of 6

SMILES: CC(=O)c1cc(C)oc1C
- survivor count [4]: 1 of 6

SMILES: O=C1C=CC(Nc2cccc([N+](=O)[O-])c2)C1Nc1cccc([N+](=O)[O-])c1 (configuration not stated)
- survivor count (dose: 60.0 mg/kg/injection, schedule: Q01DX005 (ip), vehicle: saline with Tween-80): 6 of 6
- survivor count (dose: 120.0 mg/kg/injection, schedule: Q01DX005 (ip), vehicle: saline with Tween-80): 6 of 6
- survivor count [7]: 6 of 6

SMILES: CC1(O)C=CP(C)(=O)C1 (configuration not stated)
- survivor count [3]: 6 of 6

SMILES: S=C1CC(c2ccc(Sc3ccccc3)cc2)=Nc2ccccc2N1
- survivor count [6]: 6 of 6
